Some of the results follow. These are further read-outs of the screen, such as a control signal, another cell line or another target. No call is given for them. Most of these compounds were active or inconclusive in the main read-out, so they are no random draw. The note in brackets gives the kind of curve behind each potency; many fits are weak.
Experiment: qHTS Assay for Lipid Storage Modulators in Drosophila S3 Cells;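 on cell number change: cells counted by Cell Tracker Red CMTPX staining in the red channel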
Details: BODIPY lipid droplet fluorescence, 18-24 h; for cell number change: measured here: cell count max response, cells fed with added oleic acid
How it was run: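 Drosophila S3 cells loaded with oleic acid (400 uM, as added) and compounds at several concentrations; lipid droplets imaged by 488-nm laser-scanning cytometry, 500–530 nm intensity and object ratio to cell channel. Percent activity normalized to 20 uM Triacsin C.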

[1] = measured here: cell number channel AC50, cells fed with added oleic acid
[2] = measured here: lipid fluorescence (Fed channel) AC50, cells fed with added oleic acid

SMILES	cell number change [%]	AC50 [1]	AC50 [2]
C/C(=N\NC(=O)COc1ccccc1)c1cccs1	117	0.231 µM [rising, full curve, poor fit]	2.91 µM [rising, partial curve, poor fit]
CCc1nn(CC(=O)N(C)C2CCCCC2)c(=O)c2cc3cc(C)ccc3n12	25.4		29.1 µM [rising, single point]
Cc1ccc(NC(=O)COC(=O)CCOc2ccccc2C)cc1	-2.87		0.651 µM [falling, single point]
Cc1nc(-c2ccc(Cl)cc2)sc1C1(C)CC(c2ccc(OC(F)(F)F)cc2)=NO1 (centres undefined)	-38.2	0.82 µM [falling, full curve]	
COc1ccccc1NC(=O)/C(=C\c1cccnc1)NC(=O)c1ccccc1	10.5		
CCN1CCc2c(OCC(=O)N3CCCCC3)cccc2C1=O	20.6	6.51 µM [rising, single point]	1.3 µM [rising, single point]
N=c1nc(SCCC(=O)O)ss1	-39.3	0.461 µM [falling, full curve, poor fit]	18.4 µM [falling, partial curve]
Cc1ccc2c(c1)C=CC(C#N)N2C(=O)c1ccccc1 (centres undefined)		0.651 µM [rising, full curve]	0.92 µM [rising, full curve]
COCc1[nH]nc2c1C1(CCC3(CC1)OCCO3)C(C#N)=C(N)O2	-36.4	3.26 µM [falling, full curve]	0.58 µM [falling, full curve, poor fit]
CC(=O)NCCc1nc2ccccc2n1Cc1ccc(Cl)cc1	-0.727		
Cc1cccc(C(=O)Nc2ccccc2C(=O)OCC(=O)Nc2ccc(C#N)cc2)c1	-0.804		
COCCN(C(=O)CSc1nnc(-c2ccc(C)c(C)c2)o1)c1c(N)n(CC(C)C)c(=O)[nH]c1=O	13.3		
Nc1nc(SCC(=O)Nc2ncc(Cl)cc2Cl)n[nH]1	16.2		23.1 µM [rising, single point]
COC(=O)c1ccc(CN2CCCCC2)cc1	-13.3		0.13 µM [falling, full curve, poor fit]
COC(=O)c1cc(OC)c(OC)cc1NCC(=O)Nc1ccc(OC)c(OC)c1	5.94	0.82 µM [falling, partial curve, poor fit]	0.092 µM [rising, full curve, poor fit]
O=C(NC1CCCCC1)C1(S(=O)(=O)c2ccc(Cl)cc2)CC1	6.67		
COC(=O)c1cc(S(=O)(=O)NCC2CCN(Cc3ccc(F)cc3)CC2)c[nH]1	11.5		29.1 µM [falling, single point]
COc1ccc(N(CC(=O)NCCC2=CCCCC2)S(=O)(=O)c2ccccc2)c(OC)c1	-24.4		2.06 µM [falling, partial curve, poor fit]
Cc1cc(Cl)ccc1OCC(=O)N1CCCN(C(=O)COc2ccc(Cl)cc2C)CC1	-13.6		6.51 µM [rising, single point]
Cc1ccc(S(=O)(=O)N2CCN(Cc3ccccc3)CC2)cc1	11.1		0.58 µM [falling, single point]
O=C(O)c1ccc(OCCOc2ccccc2)cc1	-49.4	29.1 µM [falling, single point]	

SMILES	cell number change [%]	AC50 [1]	AC50 [2]
CC(C)N1C(=O)C2C(C(=O)NCc3ccccc3)C3C=CC2(O3)C1C(=O)NC(C)(C)C (centres undefined)	-4.32		
CCS(=O)(=O)c1nc(S(=O)(=O)c2ccc(Cl)cc2)c(N2CCCC2)s1	-20.3		18.4 µM [rising, partial curve]
O=C(Nc1ccccc1Cl)c1cccc(NS(=O)(=O)c2ccccc2)c1	-28.1	0.58 µM [falling, full curve, poor fit]	
CC1CCN(C(=O)c2ccc(COc3ccccc3Cl)o2)CC1	80.1	3.26 µM [falling, partial curve]	
CN1c2ccccc2-c2nc3ccccc3n2C1c1ccccn1 (centres undefined)	-21.5		
N#CCCN(C(=O)COC(=O)C1=NNC(=O)CC1)c1ccccc1	-27.3		
COCCNC(=O)C1CC2Cn3c(nc4ccccc43)C2N1C (centres undefined)	3.57		4.11 µM [rising, partial curve, poor fit]
COc1ccc(-c2noc(-c3ccccc3-c3ccccc3)n2)cc1OC		0.13 µM [rising, full curve, poor fit]	1.16 µM [rising, full curve]
COc1ccc(S(=O)(=O)Nc2nnc(CC(C)C)s2)cc1	-45.7	0.116 µM [falling, full curve]	3.66 µM [falling, full curve]
C/C(=N\Nc1nc(N)cc(Cl)n1)c1cccc([N+](=O)[O-])c1	-10.2		14.6 µM [falling, single point]
Cc1cc(C)c(Cn2ncn(-c3ccc(Br)cc3)c2=O)c(C)c1	-31.2	29.1 µM [falling, single point]	32.6 µM [falling, single point]
Cc1ccc(C)n1-c1ccccc1N1CCCCC1	-39.7	10.3 µM [falling, single point]	
CCCCC(=O)NC(c1ccc(OC)c(OC)c1)c1c(O)ccc2ccccc12 (centres undefined)	-19.3		0.731 µM [falling, full curve, poor fit]
O=C(N/N=C/c1ccccn1)c1cccc([N+](=O)[O-])c1			0.58 µM [falling, single point]
COc1cc(OC)cc(C(=O)OCC(=O)NC2CCCCCC2)c1	-2.38		2.06 µM [rising, partial curve]
Cc1ccc2nc(-c3ccccn3)oc2c1	35.7	2.91 µM [rising, full curve]	6.51 µM [rising, partial curve]
COc1ccccc1N1CCN(c2ccnc3cc(Cl)ccc23)CC1			29.1 µM [falling, partial curve, poor fit]
COc1ccc(C)cc1NC(=O)CNC(c1ccccc1)c1ccccc1	17		
Cc1ccc(NC(=S)N2CCN(S(=O)(=O)c3ccc(C)cc3)CC2)cc1	40.5	5.17 µM [rising, full curve, poor fit]	
COc1cc(OC)cc(C(=O)Nc2ccn(C)n2)c1	-11.8		32.6 µM [rising, single point]
COc1ccc2cc(C)c3nnc(SCC(=O)Nc4cc(OC)c(OC)cc4C(=O)O)n3c2c1			4.11 µM [falling, single point]

3 compounds out of the list, arranged by number of heavy atoms, rising:
SMILES	cell number change [%]	AC50 [1]	AC50 [2]
COc1cc(OC)cc(C(=O)Nc2ccn(C)n2)c1	-11.8		32.6 µM [rising, single point]
Cc1ccc(NC(=O)COC(=O)CCOc2ccccc2C)cc1	-2.87		0.651 µM [falling, single point]
Cc1cccc(C(=O)Nc2ccccc2C(=O)OCC(=O)Nc2ccc(C#N)cc2)c1	-0.804		

Next entries

SMILES	cell number change [%]	AC50 [1]	AC50 [2]
O=C(Nc1ccc(S(=O)(=O)N2CCCCC2)cc1)c1ccco1	-19.2		
COc1ccc(C(=O)NCC2OCCc3ccccc32)c(O)c1 (centres undefined)	-12.4		6.51 µM [rising, single point]
O=C(CCN1C(=O)/C(=C\c2ccccc2)SC1=S)NNC(=O)c1ccccc1O	21.2		6.51 µM [rising, single point]
Cc1cc(C(=O)OCC(=O)N2CC(C)CC(C)C2)c(C)o1 (centres undefined)	13.2		0.731 µM [falling, full curve, poor fit]
Cc1ccc(C)c(NC(=O)COC(=O)c2c(C)nn(-c3ccccc3)c2C)c1	-1.69		20.6 µM [rising, partial curve, poor fit]
Cc1cc(-c2n[nH]c(=S)n2Cc2ccco2)n(C)n1	4.71		1.64 µM [rising, partial curve, poor fit]
Cc1cccc(NC(=O)CSCC(=O)NCc2ccco2)c1	-30.1	29.1 µM [falling, single point]	2.91 µM [rising, single point]
CCOCCCNC(=O)c1ccc(Cn2c(=O)[nH]c3ccsc3c2=O)cc1	17.9		0.461 µM [falling, single point]
Cc1cccc(NC(=O)c2ccc(Cl)c(S(=O)(=O)N3CCCC3)c2)n1	6.33		
CCOCCCNC(=O)c1cc2c(-c3ccc(Cl)cc3)nn(C)c2s1	41.4	0.58 µM [rising, full curve]	6.51 µM [rising, partial curve]
Cc1ccc(Cl)cc1N1CCN(C(c2ccc(C#N)cc2)c2nnnn2C2CCCC2)CC1 (centres undefined)	-20.1		23.1 µM [rising, single point]
CN(C)CC1CCCCC1OC(=O)/C=C/c1ccccc1 (centres undefined)	-15.2		1.3 µM [falling, full curve]
CN(C)S(=O)(=O)c1ccc(Nc2nc(C3CC3)nc3c2nnn3Cc2ccccc2Cl)cc1	11.5		14.6 µM [falling, single point]
Cc1cc(C)cc(OCC(=O)N/N=C\c2cn(C)nc2C)c1	2.73		1.84 µM [rising, full curve]
O=C(N/N=C/c1ccccn1)c1ccc(Br)cc1	-19.3		29.1 µM [falling, single point]
CCOC(=O)c1c(NC(=O)CSc2nnc(-c3cccc(C)c3)n2CC)sc(C(C)=O)c1C	-21.5		13 µM [falling, partial curve, poor fit]
CCCc1[nH]n(-c2ccc(F)cc2)c(=O)c1C=Nc1cccc(F)c1	-24.7		0.0651 µM [rising, full curve, poor fit]
COc1ccc([C@H]2CC(=O)C=C(/C=C/c3ccccc3)C2)cc1OC	-8.1	0.00517 µM [falling, full curve, poor fit]	0.00461 µM [falling, full curve, poor fit]
Cc1ccc(Cl)cc1N1CCN(C(=O)C2CCN(S(=O)(=O)c3cccnc3)CC2)CC1	24.6	0.146 µM [rising, full curve, poor fit]	
